This is one part of the list.
B1: il2ra_site1_3nfp_sap_15_mot_HHH_b1_02637_af2_000000013_0001_1_18_H_._HHH_b1_08141_af2_0001_0000100001_0000001_0_0001_af2pred_0001_af2pred_1 (protein)
chain: NARWKLREAEKRGTEEEFVKEILEEVARNLGDPEQAKIFLKRLLRLAGIPPEEVEELVERAEELR
B2: il2ra_site2_2erj_normal_mot_HHH_b1_03833_000000078_0001_1_20_H_._HHH_b1_00122_0001_0000600031_0000001_0 (protein)
chain: SSSSEEERIEELYELIEELLKRGDVEEVNKVLEEILRLVEEIGDPKVHRLAWEALRLLHERHSSS
B3: il2ra_site2_2erj_sap_18_mot_HHH_b2_05639_000000107_0001_40_54_H_._HHH_b2_01447_af2_0001_0000300008_0000001_0_0001 (protein)
chain: SSSSDVEEEVERLLEEAEEAYEEGDLHRVYELAVRATHLAARHNNQELLRLILEFLEELSSSSSS
B4: il2ra_site2_3nfp_sap_20_mot_HHH_b1_06589_000000230_0001_37_50_H_._HHH_b2_05271_0001_0000400027_0000001_0_0001 (protein)
chain: SSSSDLEEEFRKVAAKASHLAFERGDSEAFFRIAELLFRFERTGDPRVLELLEELLKELEGSSSS
B5: il2ra_site2_3nfp_normal_mot_HHH_b1_05627_af2_000000038_0001_43_56_H_._HHH_b2_01669_0001_0000600006_0000001_0 (protein)
chain: SSSSDKSERYLEVALRLVEEAEEEGDEEVLRSHIHVALELAHAIGDEETFEKLHELLERLSSSSS
B6: il2ra_site1_3nfp_normal_mot_HHH_b1_06045_af2_000000189_0001_3_17_H_._HHH_b1_00035_0001_0000400044_0000001_1_af2pred_0001_af2pred (protein)
chain: SSSSSDAEELVEEIEKELEELLRNGNPEEALRLVERARKELKKLDNPEASEELLRFARRLSSSSS
B7: il2ra_site2_2erj_normal_mot_HHH_b2_01204_af2_000000056_0001_19_34_H_._HHH_b2_04448_0001_0000200003_0000001_0 (protein)
chain: SSSSSSDEEEERVRELLEEAREIEDLREAYRVFVEALHIASKNNNQELVEEIYKVVKELSSSSSS
B8: il2ra_site1_1z92_sap_13_mot_HHH_b1_02362_af2_000000131_0001_1_17_H_._HHH_b1_01160_af2_0001_0000200031_0000001_0_0001_af2pred_0001_af2pred (protein)
chain: DEKEAFEEHVERIARLAGVPSVEVEYSNGKYEVTLEGDEQALRAAKKAVESIARAAHLDVEVTTE
B9: il2ra_site2_2erj_normal_mot_HHH_b1_03107_000000098_0001_39_52_H_._HHH_b2_05000_0001_0000800029_0000001_0 (protein)
chain: SSSSSDQEEIWREVAELLAEAQHIDDPEEVKRLLEEARELAEEANNEYLKRYIEFVERDHSSSSS
B10: il2ra_site2_3nfp_normal_mot_HHH_b1_01086_000000225_0001_20_36_H_._HHH_b1_05415_0001_0000600036_0000001_0 (protein)
chain: SSSSSDELEEEVERLLEEAKHIPDPFERFAALADASTLVVQNDNEELLRLVREVSARLLSSSSSS
B11: il2ra_site1_3nfp_normal_mot_HHH_b1_07204_af2_000000238_0001_41_55_H_._56b2e862c5d7020fcb9d25388f5aedda_0001_0001_0000100005_0000001_0 (protein)
chain: DIAERLLEDAKKQGDLKAVSSVARAVAHLRNDPELEERIRELAEKAKENPEVQEELIELAEELLK
B12: il2ra_site1_3nfp_sap_5_mot_119b7766384adbe86006a62bce89dba1_0001_af2_000000092_0001_18_32_H_._271fd64b0493777e1e4ec5ba97d0f55e_0001_1_0001_0000100001_0000001_0_ … (protein)
chain: TEEKLERAAEWHGSEELLKLIREALELAKEKNDPHLRYELLQLALEALFKNDPELAEEIRELAEK
B13: il2ra_site2_3nfp_normal_mot_HHH_b2_08245_000000272_0001_41_55_H_._HHH_b2_03957_0001_0000400054_0000001_1 (protein)
chain: SSSSDVEERVRELLKEAEELLERGNPEEAKKVLREASKLAYEARDPELFALIAELLYKVLGSSSS
B14: il2ra_site1_2b5i_normal_mot_HHH_b1_08745_af2_000000166_0001_39_57_H_._HHH_b2_04998_0001_0000600048_0000001_0_af2pred_dldesign_0_af2pred (protein)
chain: SSSSSSGEEVRELLLEAERLRKAGKEEEAKKVLEKALELAKKLKMNLAVKFIELALESLSSSSSS
B15: il2ra_site2_2erj_normal_mot_HHH_b1_01129_af2_000000281_0001_18_33_H_._HHH_b2_07905_0001_0000400048_0000001_0 (protein)
chain: SSSSSSDEEEERVEELLERAKHISDLEEVYKLLNEALHLAAKHNDHELLRLILEFVERHSSSSSS
B16: il2ra_site1_1z92_sap_19_mot_HHH_b1_04932_af2_000000260_0001_1_19_H_._HHH_b1_03210_af2_0001_0000500015_0000001_0_0001_af2pred_0001_af2pred_1 (protein)
chain: SSSSSAEVLREALEILDELWRRGDPEEAKEVLKEAEEILEEEGNESAVRQLRRMFETAERSSSSS
B17: il2ra_site1_1z92_sap_10_mot_HHH_b2_05238_af2_000000252_0001_38_55_H_._HHH_b2_04717_0001_0000100008_0000001_0_0001_af2pred_0001_af2pred_1 (protein)
chain: SSSSDRHLKRSLKIAVEAAVKTAGLSEEQEEELRELAEELAERGVDFLEALQIVLEVAAELSSSS
B18: il2ra_site2_2erj_normal_mot_HHH_b1_04777_000000131_0001_1_19_H_._HHH_b2_05509_0001_0000100009_0000001_0 (protein)
chain: SSSSSDELEEFVEELIKEFNLSELAKFYLERWARISKELGLSEEQIKKALEQAAEADRRSSSSSS

What follows are binders tested against il2ra, P01589 (assay: yeast display titration).

Row | Binder | apparent Kd
1 | B1 | inactive: no binding seen
2 | B2 | inactive: no binding seen
3 | B3 | inactive: no binding seen
4 | B4 | inactive: no binding seen
5 | B5 | inactive: no binding seen
6 | B6 | inactive: no binding seen
7 | B7 | inactive: no binding seen
8 | B8 | inactive: no binding seen
9 | B9 | inactive: no binding seen
10 | B10 | inactive: no binding seen
11 | B11 | inactive: no binding seen
12 | B12 | inactive: no binding seen
13 | B13 | inactive: no binding seen
14 | B14 | inactive: no binding seen
15 | B15 | inactive: no binding seen
16 | B16 | inactive: no binding seen
17 | B17 | inactive: no binding seen
18 | B18 | inactive: no binding seen

Two entries drawn at random from the list so far:
Row | Binder | apparent Kd
10 | B10 | inactive: no binding seen
15 | B15 | inactive: no binding seen

— PMC10163288
